Laboratory results: paper PMC2572840
Results are given in words; binding and its absence hold for the method and conditions named. For part of these data: In cells and extracts the contact can be indirect. Some binding calls cover weakened binding; strength is not graded here. For part of these data: Sequences can lack the tags named with a protein.

Legend:
[1] = biological target: T1, Tks5, endogenous in mouse myoblasts (mouse (endogenous in H-2K^b-tsA58 myoblasts)) (UniProt O89032); assay: co-IP; myoblast extracts in RIPA buffer at 4°C overnight; extensive washes and a final wash in RIPA buffer with 0.6 M LiCl2; SDS-PAGE and western blotting
T1 sequence: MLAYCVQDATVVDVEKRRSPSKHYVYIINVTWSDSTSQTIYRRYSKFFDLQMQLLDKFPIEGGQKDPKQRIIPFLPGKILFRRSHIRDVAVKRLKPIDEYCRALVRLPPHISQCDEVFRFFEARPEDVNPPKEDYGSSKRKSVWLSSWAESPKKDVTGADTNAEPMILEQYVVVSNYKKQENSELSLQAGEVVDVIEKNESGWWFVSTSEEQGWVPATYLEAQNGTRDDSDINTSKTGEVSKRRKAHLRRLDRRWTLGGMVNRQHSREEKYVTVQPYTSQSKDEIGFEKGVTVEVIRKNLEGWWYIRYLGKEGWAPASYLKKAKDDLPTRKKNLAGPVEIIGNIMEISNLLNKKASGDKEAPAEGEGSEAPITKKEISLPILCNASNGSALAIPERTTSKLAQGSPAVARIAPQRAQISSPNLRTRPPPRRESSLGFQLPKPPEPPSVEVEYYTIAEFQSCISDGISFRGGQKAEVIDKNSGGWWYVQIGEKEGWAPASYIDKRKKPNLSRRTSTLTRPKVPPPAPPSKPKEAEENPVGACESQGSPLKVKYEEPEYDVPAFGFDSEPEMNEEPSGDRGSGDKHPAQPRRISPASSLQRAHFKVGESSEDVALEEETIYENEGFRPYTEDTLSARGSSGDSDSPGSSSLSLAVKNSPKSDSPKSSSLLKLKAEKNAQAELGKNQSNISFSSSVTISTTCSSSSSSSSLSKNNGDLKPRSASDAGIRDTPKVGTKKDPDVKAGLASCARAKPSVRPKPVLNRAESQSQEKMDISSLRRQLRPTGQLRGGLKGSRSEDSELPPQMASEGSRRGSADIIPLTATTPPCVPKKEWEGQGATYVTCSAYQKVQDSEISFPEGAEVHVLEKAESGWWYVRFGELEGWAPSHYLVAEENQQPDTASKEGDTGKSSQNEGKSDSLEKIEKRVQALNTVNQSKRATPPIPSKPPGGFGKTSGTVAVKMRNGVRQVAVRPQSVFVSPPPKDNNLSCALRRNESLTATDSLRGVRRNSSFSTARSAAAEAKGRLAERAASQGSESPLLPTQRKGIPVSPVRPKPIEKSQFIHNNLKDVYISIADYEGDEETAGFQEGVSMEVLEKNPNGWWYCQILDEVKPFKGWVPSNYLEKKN

[2] = biological target: T2, β-dystroglycan, endogenous in mouse myoblasts (mouse (endogenous in H-2K^b-tsA58 myoblasts)) (UniProt Q62165); assay: as above
T2 sequence: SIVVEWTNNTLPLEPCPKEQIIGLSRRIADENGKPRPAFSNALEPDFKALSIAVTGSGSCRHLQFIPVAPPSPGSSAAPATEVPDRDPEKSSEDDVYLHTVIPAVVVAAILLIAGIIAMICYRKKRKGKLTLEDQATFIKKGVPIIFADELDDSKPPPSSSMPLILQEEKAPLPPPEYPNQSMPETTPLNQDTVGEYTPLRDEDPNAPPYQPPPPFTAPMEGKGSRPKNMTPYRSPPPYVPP

[3] = biological target: T3, GFP-Tks5-mito (human) (UniProt Q5TCZ1); assay: recruitment to mitochondria by a mitochondrially targeted partner (immunofluorescence); mito-targeted GFP-Tks5 co-expressed with cytosolic Myc-tagged β-DG cytoplasmic domain in myoblast cells; localisation by fluorescence microscopy
T3 sequence: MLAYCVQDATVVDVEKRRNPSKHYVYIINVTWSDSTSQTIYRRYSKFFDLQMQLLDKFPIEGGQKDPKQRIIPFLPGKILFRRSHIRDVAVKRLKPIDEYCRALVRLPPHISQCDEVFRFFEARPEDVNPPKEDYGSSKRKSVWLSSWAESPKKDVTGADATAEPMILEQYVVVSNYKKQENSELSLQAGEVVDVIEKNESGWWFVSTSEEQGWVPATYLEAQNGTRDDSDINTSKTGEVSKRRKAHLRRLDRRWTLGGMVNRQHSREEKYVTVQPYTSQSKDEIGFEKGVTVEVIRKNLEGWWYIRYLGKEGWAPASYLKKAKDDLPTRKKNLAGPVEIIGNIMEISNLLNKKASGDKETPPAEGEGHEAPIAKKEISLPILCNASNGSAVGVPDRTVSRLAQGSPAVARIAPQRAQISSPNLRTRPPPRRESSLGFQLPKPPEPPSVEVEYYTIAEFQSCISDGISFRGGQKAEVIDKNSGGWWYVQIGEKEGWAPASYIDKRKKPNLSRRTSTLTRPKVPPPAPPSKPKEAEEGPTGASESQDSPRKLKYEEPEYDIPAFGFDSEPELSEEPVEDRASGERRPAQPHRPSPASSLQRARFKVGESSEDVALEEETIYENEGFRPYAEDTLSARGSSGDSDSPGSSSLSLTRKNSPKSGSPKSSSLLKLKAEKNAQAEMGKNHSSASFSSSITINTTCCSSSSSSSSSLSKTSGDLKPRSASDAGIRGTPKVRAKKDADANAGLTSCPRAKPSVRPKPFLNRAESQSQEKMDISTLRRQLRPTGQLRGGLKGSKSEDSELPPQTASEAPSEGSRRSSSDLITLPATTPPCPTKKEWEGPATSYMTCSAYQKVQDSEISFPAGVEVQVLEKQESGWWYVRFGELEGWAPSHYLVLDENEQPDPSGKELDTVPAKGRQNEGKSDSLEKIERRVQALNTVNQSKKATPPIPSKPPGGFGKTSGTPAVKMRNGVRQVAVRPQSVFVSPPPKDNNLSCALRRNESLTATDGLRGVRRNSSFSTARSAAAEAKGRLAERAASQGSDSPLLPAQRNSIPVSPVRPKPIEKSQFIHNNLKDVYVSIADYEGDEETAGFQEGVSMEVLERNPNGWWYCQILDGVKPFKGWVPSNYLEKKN

B1: β-dystroglycan, endogenous in mouse myoblasts (receptor, UniProt Q62165 652-893)
chain: T2 sequence
B1 was tested, and the binding [1] was “binds”.

B2: Tks5, endogenous in mouse myoblasts (protein, UniProt O89032 1-1124)
chain: T1 sequence
In the case of B2, the binding [2] is reported as “binds”.

B3: Myc-tagged cytoplasmic domain of β-dystroglycan (domain or fragment, UniProt Q62165 773-893)
chain: YRKKRKGKLTLEDQATFIKKGVPIIFADELDDSKPPPSSSMPLILQEEKAPLPPPEYPNQSMPETTPLNQDTVGEYTPLRDEDPNAPPYQPPPPFTAPMEGKGSRPKNMTPYRSPPPYVPP
For B3, the binding [3] was “binds”.
